# Data published in publication PMC5340868 (mBio, 2017).
# Results are given in words; binding and its absence hold for the method and conditions named. In cells and extracts the contact can be indirect. Some binding calls cover weakened binding; strength is not graded here. Where a sequence is shown, tags or fusion partners need not be part of it.
# Biological target: Rv3167c, M-PFC fusion proteins (from pUAB300 and pUAB400) (Mycobacterium tuberculosis) (UniProt O53317)
# Assay: split reporter
binder,measurement,value
"Rv3167c, M-PFC fusion proteins (from pUAB300 and pUAB400) (protein, UniProt O53317 1-208) MKADLPSLDKAPGAGRPRDPRIDSAILSATAELLVQIGYSNLSLAAVAERAGTTKSALYRRWSSKAELVHEAAFPAAPTALQAAAGDIAADIRMMIAATRDVFTTPVVRAALPGLVADMTADAELNARVLARFADLFAAVRMRLREAVDRGEAHPDVDPDRLIELIGGATMLRMLLYPDDMLDDAWVDQTTAIVVRGVHRAAPGGSVV",binding,binds
